Reference: publication doi:10.1101/228775
These are yes or no findings as the source states them, for the method shown. Some binding calls cover weakened binding; strength is not graded here. Sequences can lack the tags named with a protein.

Sequences of proteins named here, by UniProt entry; tags and fusion partners are left off. A change or cut given only in a name is not applied to a line headed by its entry.
UniProt A0A0A7HFE1, whole entry, looked up, stated change not applied: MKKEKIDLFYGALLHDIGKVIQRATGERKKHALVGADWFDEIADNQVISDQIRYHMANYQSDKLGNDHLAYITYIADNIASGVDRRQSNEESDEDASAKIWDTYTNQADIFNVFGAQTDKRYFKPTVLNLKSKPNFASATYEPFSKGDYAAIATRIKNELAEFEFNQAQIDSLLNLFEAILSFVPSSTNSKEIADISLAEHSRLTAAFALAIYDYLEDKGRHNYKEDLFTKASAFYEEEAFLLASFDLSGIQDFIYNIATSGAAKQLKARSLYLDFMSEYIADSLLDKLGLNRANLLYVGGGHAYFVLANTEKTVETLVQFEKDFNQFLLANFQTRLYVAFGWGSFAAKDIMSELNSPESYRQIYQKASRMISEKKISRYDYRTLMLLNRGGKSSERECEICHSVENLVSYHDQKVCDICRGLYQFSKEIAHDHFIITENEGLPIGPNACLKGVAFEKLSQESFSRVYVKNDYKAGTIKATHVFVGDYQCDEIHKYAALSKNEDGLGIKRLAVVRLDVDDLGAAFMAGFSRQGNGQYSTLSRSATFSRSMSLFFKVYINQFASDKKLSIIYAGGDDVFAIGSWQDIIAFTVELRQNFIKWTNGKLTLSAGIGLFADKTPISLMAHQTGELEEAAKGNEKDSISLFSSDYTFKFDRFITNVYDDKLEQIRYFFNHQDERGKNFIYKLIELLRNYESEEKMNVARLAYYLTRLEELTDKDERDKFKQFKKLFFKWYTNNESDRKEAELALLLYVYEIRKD

T1: N-terminal-StrepII-tagged Csm2 of Streptococcus thermophilus (from plasmid pCsm2-Tag) (Streptococcus thermophilus)
T1 sequence: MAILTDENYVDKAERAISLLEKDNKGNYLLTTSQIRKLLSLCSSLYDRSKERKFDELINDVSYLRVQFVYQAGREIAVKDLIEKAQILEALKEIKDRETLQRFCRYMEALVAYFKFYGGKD

B1: Csm3 D33A of Streptococcus thermophilus (RNase-defective subunit of the StCsm complex) (enzyme, UniProt A0A0A7HIF0 1-220)
chain: MTFAKIKFSAQIRLETGLHIGGSDAFAAIGAIASPVIKDPITNIPIIPGSSLKGKMRTLLAKVYNEKVAEKPSDDSDILSRLFGNSKDKRFKMGRLIFRDAFLSNADELDSLGVRSYTEVKFENTIDRITAEANPRQIERAIRNSTFDFELIYEITDENENQVEEDFKVIRDGLKLLELDYLGGSGSRGYGKVAFEKLKATTVFGNYDVKTLNELLTAEV

Molecular target: T1, N-terminal-StrepII-tagged Csm2 of Streptococcus thermophilus (from plasmid pCsm2-Tag) (Streptococcus thermophilus)
Experiment: co-purification

Molecule | binding
Cas10 D16A of Streptococcus thermophilus (DNase-defective subunit of the StCsm complex) (from UniProt A0A0A7HFE1 1-758) (enzyme) | binds
B1 | binds
